According to PubChem BioAssay AID720535 (National Center for Advancing Translational Sciences (NCATS), 2013):
Shown are results outside the selection of hits, which stands elsewhere. Records with an inconclusive call do not appear. Activity calls are given as the source filed them. The call rests on the fitted dose curve; in most records, active means well fitted inhibition curve with a large enough effect; inconclusive means small, poorly fitted or top-dose-only effect; inactive means flat fitted curve, though single readings scatter.

Test: qHTS for Inhibitors of TGF-b: Cytotox Counterscreen for Cherry Picks; further: nearly all actives have a fitted effect of over 70% in size
Details: HepG2 CAGA-GFP viability, ATP luminescence, 18 h, cells stimulated with TGF-beta, 500 pg/mL; at 46.1 µM (top of the series)
Source text: TGF-b is a main component in the TGF-b signaling pathway which plays diverse roles in cellular and development pathways. TGF-b is mediated by transcription factors called "Smads". Although the Smad-dependent pathway is the primary canonical TGF-b signaling mode, TGF-b1 can also activate alternative signaling pathways, including those involving MAPK (ERK, JNK and p38). This interaction may mediate or enhance Smad-dependent responses, or can exert Smad-independent effects. The complexity of this signaling cascade allows the TGF-b superfamily to perform unique, overlapping or redundant functions. […] We aim to identify Smad3-small molecule antagonists using a quantitative high throughput screening (qHTS) approach. […]
Suspensions of trypsinized HEPG2 CAGA-GFP cells were dispensed into white, tissue culture-treated, solid 1536-well plates at 5uL/well (1000 cells/well final concentration) in DMEM medium supplemented with 1% FBS. […] Two uL of CellTiter Glo (Promega), a luminescence-based viability reagent, was dispensed, followed by a 10 minute room temperature incubation. The plates were then measured on a PerkinElmer ViewLux plate reader for luminescence (clear filter) using a 5 second exposure. The %Activity was determined from the corrected luminescence values. […] Concentration-response curves were fitted to the signals arising from the resulting luminescence. […]

| SMILES | activity, negative = cytotoxicity |
| --- | --- |
| COc1cc2c(c(OC)c1OC)-c1ccc(OC)c(=O)cc1C(N)CC2 (stereo unspecified) | inactive: 3.37% |
